19 molecules from PubChem BioAssay AID248 (DTP/NCI, 2004) can be followed below.

This test deals with L1210 leukemia ip in BDF1 mice, survival T/C. Kind of test: NCI In Vivo Anticancer Drug Screen. Data for tumor model L1210 Leukemia (intraperitoneal) in B6D2F1 (BDF1) mice. The following applies: higher T/C = longer survival.
[1] abbreviates: T/C endpoint: mean survival time, dose: 400.0 mg/kg/injection, schedule: Q01DX001 (ip), vehicle: other.
[2] abbreviates: T/C endpoint: mean survival time, dose: 200.0 mg/kg/injection, schedule: Q04DX002 (ip), vehicle: saline with Tween-80.
Where [3] appears, read: T/C endpoint: mean survival time, dose: 200.0 mg/kg/injection, schedule: Q01DX001 (ip), vehicle: saline.
[4] abbreviates: T/C endpoint: mean survival time, dose: 400.0 mg/kg/injection, schedule: Q04DX002 (ip), vehicle: saline with Tween-80.
[5] abbreviates: T/C endpoint: mean survival time, dose: 400.0 mg/kg/injection, schedule: Q01DX009 (ip), vehicle: saline with Tween-80.
The mark [6] stands for this setting: T/C endpoint: mean survival time, dose: 100.0 mg/kg/injection, schedule: Q01DX009 (ip), vehicle: Klucel (hydroxypropylcellulose) (HPC).
Setting [7] is: T/C endpoint: mean survival time, dose: 200.0 mg/kg/injection, schedule: Q01DX009 (ip), vehicle: Klucel (hydroxypropylcellulose) (HPC).
Setting [8] is: T/C endpoint: mean survival time, dose: 400.0 mg/kg/injection, schedule: Q01DX009 (ip), vehicle: Klucel (hydroxypropylcellulose) (HPC).

The list does not hold the whole screen: it is rich in T/C values a quarter to a half above the control, in often repeated tests (any T/C) and in doses without a T/C. Further doses and runs are listed elsewhere. T/C is the treated group as % of the vehicle group. Some entries give survivors of the animals treated and no T/C: the source files T/C as zero there, which appears to mark a toxic dose or a test without result, not a measured value. Some doses without a T/C left all or most animals alive at the check, yet need not have been tolerated: the source hardly ever lists a survival T/C far under the control, and the zero likely stands for such cases as well. Counts of survivors are from the toxicity check (mostly the fifth day) where no day follows; animals may have died later. Schedule codes are those of the source, read here as Q, the interval in days (D) or hours (H), X, the number of doses. Some schedule codes hold Z or #, which are not explained here. Some structures stand for samples that the source files as different forms (salt, stereo form or complex); doses refer to the form tested. For survival time, this PubChem deposit counts one and a half times the control or more as active, and values a quarter to a half above the control carry no call in these data; other NCI protocols may use other cut-offs. Some entries were tested several times; the values are given in rising order. Some T/C values carry the count of animals alive at the toxicity check (mostly the fifth day); without a count, all were alive then.

Take `O=C(C=P(c1ccccc1)(c1ccccc1)c1ccccc1)CCl`: the survivor count by setting is: (T/C endpoint: mean survival time, dose: 50.0 mg/kg/injection, schedule: Q01DX001 (ip), vehicle: Klucel (hydroxypropylcellulose) (HPC)) 3 of 6; (T/C endpoint: mean survival time, dose: 100.0 mg/kg/injection, schedule: Q01DX001 (ip), vehicle: Klucel (hydroxypropylcellulose) (HPC)) 0 of 6; (T/C endpoint: mean survival time, dose: 200.0 mg/kg/injection, schedule: Q01DX001 (ip), vehicle: Klucel (hydroxypropylcellulose) (HPC)) 0 of 6; (T/C endpoint: mean survival time, dose: 400.0 mg/kg/injection, schedule: Q01DX001 (ip), vehicle: Klucel (hydroxypropylcellulose) (HPC)) 0 of 6.
Take `O=C(/C=C\c1ccccc1)C(=O)/C=C/c1ccccc1`: the survivor count (T/C endpoint: mean survival time, dose: 100.0 mg/kg/injection, schedule: Q01DX009 (ip), vehicle: other) was 6 of 6; the survivor count (T/C endpoint: mean survival time, dose: 200.0 mg/kg/injection, schedule: Q01DX001 (ip), vehicle: other) was 6 of 6; the survivor count under setting [1] is listed as 6 of 6.
With `C=CCN(C)/N=N/c1[nH]ncc1C(N)=O`, the T/C runs as follows: (T/C endpoint: mean survival time, dose: 22.0 mg/kg/injection, schedule: Q01DX009 (ip), vehicle: saline with Tween-80) 142 % of control; (T/C endpoint: mean survival time, dose: 33.0 mg/kg/injection, schedule: Q01DX009 (ip), vehicle: saline with Tween-80) 132 % of control; (T/C endpoint: mean survival time, dose: 100.0 mg/kg/injection, schedule: Q04DX003 (ip), vehicle: saline with Tween-80) 131 and 134 % of control; (T/C endpoint: mean survival time, dose: 150.0 mg/kg/injection, schedule: Q04DX003 (ip), vehicle: saline with Tween-80) 134 % of control; (T/C endpoint: mean survival time, dose: 200.0 mg/kg/injection, schedule: Q01DX001 (ip), vehicle: saline with Tween-80) 135 % of control; (T/C endpoint: mean survival time, dose: 200.0 mg/kg/injection, schedule: Q04DX003 (ip), vehicle: saline with Tween-80) 133 % of control [5 of 6 alive]. In addition, the survivor count (T/C endpoint: mean survival time, dose: 400.0 mg/kg/injection, schedule: Q01DX001 (ip), vehicle: saline with Tween-80) is given as 3 of 6.
Regarding `C/C=C/C1OCCO1`, the survivor count (T/C endpoint: mean survival time, dose: 200.0 mg/kg/injection, schedule: Q01DX009 (ip), vehicle: acetone) is 1 of 6 and the survivor count (T/C endpoint: mean survival time, dose: 400.0 mg/kg/injection, schedule: Q01DX009 (ip), vehicle: acetone) was 0 of 6.
Regarding `ClCCOCCOc1ccccc1OCCOCCCl`, the survivor count under setting [2] was 3 of 3.
On to `CC(C)(C)c1cc([N+](C)(C)C)cc(C(C)(C)C)n1`, for which the survivor count is on record as 1 of 3 (T/C endpoint: mean survival time, dose: 100.0 mg/kg/injection, schedule: Q01DX001 (ip), vehicle: saline); 0 of 3 (T/C endpoint: mean survival time, dose: 100.0 mg/kg/injection, schedule: Q04DX002 (ip), vehicle: saline with Tween-80); 0 of 3 under setting [3]; 0 of 3 under setting [2]; 0 of 3 under setting [4].
Regarding `S=P(N1CCOCC1)(N1CC1)N1CC1`, the T/C was 136 % of control (T/C endpoint: mean survival time, dose: 10.0 mg/kg/injection, schedule: Q#A X Z (ip), vehicle: saline); 140 % of control (T/C endpoint: mean survival time, dose: 17.5 mg/kg/injection, schedule: Q07DX003 (ip), vehicle: saline); 149 % of control (T/C endpoint: mean survival time, dose: 18.0 mg/kg/injection, schedule: Q01DX003 (ip), vehicle: saline); 136 % of control (T/C endpoint: mean survival time, dose: 20.0 mg/kg/injection, schedule: Q01DX006 (iv), vehicle: saline); 142 % of control (T/C endpoint: mean survival time, dose: 20.0 mg/kg/injection, schedule: Q01DX Z (sc), vehicle: saline); 146 % of control (T/C endpoint: mean survival time, dose: 20.0 mg/kg/injection, schedule: Q#A X Z (ip), vehicle: saline). In addition, the T/C (T/C endpoint: mean survival time, dose: 26.0 mg/kg/injection, schedule: Q01DX003 (ip), vehicle: saline) is 139 % of control; the T/C (T/C endpoint: mean survival time, dose: 35.0 mg/kg/injection, schedule: Q01DX001 (ip), vehicle: saline) is 135 % of control; the T/C (T/C endpoint: mean survival time, dose: 35.0 mg/kg/injection, schedule: Q07DX003 (ip), vehicle: saline) is 130 % of control; the T/C (T/C endpoint: mean survival time, dose: 40.0 mg/kg/injection, schedule: Q01DX006 (iv), vehicle: saline) is 145 % of control; the T/C (T/C endpoint: mean survival time, dose: 40.0 mg/kg/injection, schedule: Q01DX Z (oral), vehicle: saline) was 126 % of control; the T/C (T/C endpoint: mean survival time, dose: 40.0 mg/kg/injection, schedule: Q01DX Z (sc), vehicle: saline) was 130 % of control. The T/C runs as follows: (T/C endpoint: mean survival time, dose: 60.0 mg/kg/injection, schedule: Q03DX006 (ip), vehicle: saline) 126 % of control; (T/C endpoint: median survival time, dose: 40.0 mg/kg/injection, schedule: Q01DX009 (ip), vehicle: saline) 131 % of control. Moreover, the survivor count (T/C endpoint: mean survival time, dose: 40.0 mg/kg/injection, schedule: Q01DX010 (ip), vehicle: saline) is 6 of 6; the survivor count (T/C endpoint: mean survival time, dose: 80.0 mg/kg/injection, schedule: Q01DX Z (sc), vehicle: saline) is listed as 5 of 6; the survivor count (T/C endpoint: mean survival time, dose: 80.0 mg/kg/injection, schedule: Q#A X Z (ip), vehicle: saline) is 3 of 6; the survivor count (T/C endpoint: mean survival time, dose: 120.0 mg/kg/injection, schedule: Q03DX006 (ip), vehicle: saline) is listed as 1 of 6; the survivor count (T/C endpoint: mean survival time, dose: 140.0 mg/kg/injection, schedule: Q01DX001 (ip), vehicle: saline) was 2 of 6; the survivor count (T/C endpoint: mean survival time, dose: 140.0 mg/kg/injection, schedule: Q07DX003 (ip), vehicle: saline) is 1 of 6. The survivor count runs as follows: (T/C endpoint: mean survival time, dose: 160.0 mg/kg/injection, schedule: Q01DX006 (iv), vehicle: saline) 4 of 6; (T/C endpoint: mean survival time, dose: 160.0 mg/kg/injection, schedule: Q01DX Z (oral), vehicle: saline) 3 of 6; (T/C endpoint: mean survival time, dose: 160.0 mg/kg/injection, schedule: Q01DX Z (sc), vehicle: saline) 6 of 6; (T/C endpoint: mean survival time, dose: 160.0 mg/kg/injection, schedule: Q#A X Z (ip), vehicle: saline) 0 of 6; (T/C endpoint: mean survival time, dose: 280.0 mg/kg/injection, schedule: Q01DX001 (ip), vehicle: saline) 1 of 6; (T/C endpoint: mean survival time, dose: 280.0 mg/kg/injection, schedule: Q07DX003 (ip), vehicle: saline) 3 of 6.
In the case of `O=c1ccc2c(Cl)cc(CN(CCO)CCO)cc2[nH]1`, the survivor count (T/C endpoint: mean survival time, dose: 300.0 mg/kg/injection, schedule: Q04DX003 (ip), vehicle: saline) is on record as 0 of 6.
Take `CC1(O)c2cccc3c2C2(O)c4c1cccc4C(C)(O)c1cccc(c12)C3(C)O` (stereo unspecified): the survivor count under setting [5] is 3 of 6.
With `O=CC1CO1` (stereo unspecified), the survivor count (T/C endpoint: mean survival time, dose: 100.0 mg/kg/injection, schedule: Q01DX Z (ip), vehicle: steroid suspending solution) is recorded as 6 of 6.
As to `C(#CC[P+](c1ccccc1)(c1ccccc1)c1ccccc1)C[P+](c1ccccc1)(c1ccccc1)c1ccccc1`, the survivor count runs as follows: under setting [6], 0 of 6; under setting [7], 0 of 6; under setting [8], 0 of 6.
As to `O=c1[nH]c(=O)c(C2OC(CO)C(O)C2O)co1` (stereo unspecified), the survivor count (T/C endpoint: mean survival time, dose: 25.0 mg/kg/injection, schedule: Q04DX003 (ip), vehicle: saline with Tween-80) is on record as 2 of 6.
With `CC1=CC(C)(C)NC(=S)N1c1cc(Cl)ccc1Cl`, under “T/C endpoint: mean survival time, dose: 750.0 mg/kg/injection, schedule: Q01DX Z (ip), vehicle: methylcellulose (MC)”, the survivor count is 5 of 6.
Regarding `S=C(S)N1CCC(CC2CCN(C(=S)S)CC2)CC1`, the survivor count under setting [5] is reported as 2 of 6.
Turning to `CCCCCCCCC(C)C`, the survivor count under setting [4] is listed as 2 of 3.
In the case of `CCC/C=N/Nc1ccnc(SC)n1`, the survivor count is on record as 6 of 6 (T/C endpoint: mean survival time, dose: 200.0 mg/kg/injection, schedule: Q01DX009 (ip), vehicle: gum acacia) and 0 of 6 (T/C endpoint: mean survival time, dose: 400.0 mg/kg/injection, schedule: Q01DX009 (ip), vehicle: gum acacia).
As to `NC(=S)N/N=C/c1nccn1Cc1ccccc1`, the survivor count under setting [1] is listed as 3 of 3.
Regarding `CCC(C)[n+]1cc([O-])on1` (stereo unspecified), the survivor count under setting [6] is reported as 2 of 6, the survivor count under setting [7] is listed as 0 of 6 and the survivor count under setting [8] was 0 of 6.
On to `CC(=O)Nc1cc2c(cc1[N+](=O)[O-])-c1ccccc1C2O` (stereo unspecified), for which the survivor count is given as 6 of 6 under setting [3] and 0 of 6 (T/C endpoint: mean survival time, dose: 400.0 mg/kg/injection, schedule: Q01DX001 (ip), vehicle: saline).
